Reference: PubChem BioAssay AID1347426 (Functional Genomics Laboratory (NCATS/FGL), 2020)
About 1,400 (4.5%) of roughly 31,000 sequences were called active.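 How the source made its calls: active means median seed-adjusted z-score above 1 or below -1; inactive means the rest.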 The list shows a part of the results.

Assay: Novel Modifiers of Survival Motor Neuron (SMN) Protein: Gene Identification via Genome-wide siRNA Screen;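 further: luminescence tracks full-length SMN protein made from the SMN2 reporter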
Settings: HEK293T SMN2-luciferase reporter, siRNA knockdown, 72 h; actives lie on both sides
In short: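 Steps: spot 1 pmol siRNA, add Lipofectamine RNAiMax in serum-free DMEM, seed HEK293T SMN2–luciferase reporter cells; incubate 72 h at 37 °C; add ONE-Glo; normalize luminescence to control siRNA, log10, MAD. Candidates: |MAD| > 1.0.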

Sequence | median seed-adjusted z-score
CCAAAGAUGUUUCAUCUGATT against PCDHGA7 | inactive: 0.705
GGGAGACAGUGCUCACGAATT against REM2 | inactive: 0.109
CCUUAUCCGAGAAUACAUUTT against TUBAL3 | active: 1.05
CAUCGUUUCUAGACCAUUATT against OXGR1 | inactive: -0.0388
GAACGGCUCUUAAGAUCAATT against CACNA1D | inactive: -0.0856
GGAUUAUCCUCGACUUACATT against DYNC1LI1 | inactive: -0.683
GGUCAAGUUUUUGAUCAGATT against CPM | inactive: 0.549
CUGUCCGUAUGAUUACAAATT against ZFAND5 | inactive: 0.0289
GGGUCUCAGCUGUACUCUATT against KCNJ13 | inactive: 0.327
GCAAAGACCUGUGAAGCUATT against NAT14 | inactive: -0.283
CAAUCCGGCGGAAAUCAGATT against CDX1 | inactive: 0
UGACCGCUCCCUUCGCAAATT against ACP5 | inactive: 0.353
GAAUGUUAGUAGACGGGUUTT against IKZF5 | inactive: 0.399
GACUCAUACCAAUCACGAATT against JMJD1A | inactive: 0.466
ACAGAAACUUUGAGGUGGATT against MAP2K3 | inactive: 0.365
CAUCUGCGGUAGAAAAGGATT against SERTAD3 | inactive: -0.216
CCAUUUUAGCUCUAGAAGATT against GSTA4 | inactive: -0.848
GGUGUAUGUUGGUAUCAGUTT against RSF1 | inactive: 0
GACCUGUGCUUGCUAAAGATT against ZNF653 | inactive: -0.202
CCUCAAUCAGUCUACAGAATT against USP29 | inactive: 0.00928
CCAGUACACUUUUGUCUGATT against CDC5L | inactive: -0.628
GAGACAAGAUUGUAGCAGATT against DLG5 | inactive: 0.467

Some values from the results shown:
median seed-adjusted z-score with CAUCGUUUCUAGACCAUUATT against OXGR1 reads inactive: -0.0388
median seed-adjusted z-score with GGGUCUCAGCUGUACUCUATT against KCNJ13 reads inactive: 0.327
median seed-adjusted z-score with ACAGAAACUUUGAGGUGGATT against MAP2K3 reads inactive: 0.365
median seed-adjusted z-score with GAGACAAGAUUGUAGCAGATT against DLG5 reads inactive: 0.467
median seed-adjusted z-score with GACUCAUACCAAUCACGAATT against JMJD1A reads inactive: 0.466

Following part.

Sequence | median seed-adjusted z-score
GCAACCAAAUCGGAUGAUATT against ADAMTSL1 | inactive: -0.107
ACCGCACGAUGUUCAACUUTT against DNAJC30 | inactive: 0.329
GAGUUUCUGUCCAAACUGATT against IL17RA | active: -1.29
GAGUCUUAGUAAAAGAAUUTT against GK | inactive: -0.474
CCAGUGCUUGAGUAUCCAATT against ACOX3 | inactive: 0.658
GGAAUAUACAUGUCAAGAATT against GRPR | inactive: 0.121
CUAUCCAACUCAAACGAUUTT against USP9Y | inactive: 0.012
CUUCAUCGAUAUCUACUUUTT against CATSPER3 | inactive: 0.685
GGAAGUCGACAGUUAAAAUTT against DUSP14 | inactive: 0.0654
GAAUAGCAAUUACAGUUAATT against SRR | inactive: -0.256
CCACUUACUUUAGAAGACATT against ZNF77 | inactive: 0.345
CGAAGUUCAUAGACGAGAUTT against PPP1R2 | inactive: 0.208
GCACGGCAAUUGAAGCAUATT against CCNG1 | inactive: 0.131
GACCUGACAGGACAACCUATT against MDFI | inactive: 0.279
CGCUCCAAAGAGUACAUAUTT against TIA1 | inactive: -0.188
CCACUGACAAGGUCCACGATT against MRGPRD | inactive: -0.484
GCUUCGUGACGCACACCAATT against PISD | inactive: 0.231
CCUCCCAUCUUAUUAUCCATT against ZNF572 | inactive: 0.237
GGAUUAAACCAGACCGUGUTT against IRX5 | inactive: -0.373
GCAAGAAAGCUAACACUUATT against VAX2 | inactive: -0.71
CCAUGAAUCUACUAAAGCATT against QARS | inactive: -0.411
CUGUCGUCCUCAACCCUAUTT against NDST3 | inactive: 0.476

Sequence | median seed-adjusted z-score
AGAAGACCAUUGUCAAGGATT against EXOC7 | inactive: -0.231
GCACGUCUACAGUCACACUTT against ZNF764 | inactive: 0.184
GAGACUAUUAUAUCGAGUATT against TRPA1 | inactive: 0.341
GAUUUAAAGGUGUAUGGAATT against SLC25A3 | inactive: -0.495
GGACUUGCUAAAACCAGAATT against TUBGCP3 | inactive: -0.685
CCUCGUACCUUGUACAACATT against ZNF30 | inactive: -0.0208
GGUCAUUAGGAACUAUUCUTT against VAV3 | inactive: 0
AGUUUAAUCGGAAAGCCUUTT against NANS | active: -1.54
GACUAUGUCCUGACAUAUATT against DSC2 | inactive: -0.0641
GGAUGUGGACAGUGCCUAUTT against KRT3 | inactive: 0.399
CGAUGGAAAUUCCGAAAGATT against ACAD10 | inactive: -0.269
CAUCAACUUAUUACGUUAATT against CENPE | inactive: 0.298
CAAUGACGGCAAGUCUAAATT against PTPN11 | inactive: 0.186
GCACCUUUAUCUAUGGUUATT against PSMB9 | inactive: -0.788
GGCUCAAGAGUAUUUCUGATT against MIP | inactive: 0.702
GAUUACCCUUAGAUCAUAUTT against NARG1 | active: -1.02
CAGUCUUCCUUAUUAUUAATT against SLC43A3 | inactive: 0.431
GAUCUUCAGUCACCUUCAATT against CA12 | inactive: -0.0119
CAAGUGCAUUGGUGAAAGATT against IL5 | inactive: -0.229
CGGAAAGUACUUAAACGGATT against PIAS4 | inactive: 0.265
GGACUCAGAUGAGUUUUAUTT against CYP11B2 | inactive: 0.459
CCAGCAGCAUGGAAGUUGUTT against HSD3B7 | inactive: -0.0819

Sequence | median seed-adjusted z-score
GAGCGAGACAUAAAAUAUUTT against ZNF257 | inactive: 0.306
GGAUGAUAGAACAACAGAUTT against FMO2 | inactive: -0.265
AGCUCACCAGAGAAAUUUUTT against CHDH | inactive: 0.0241
CUACAACAUCGUUAGCAAATT against CNGB1 | inactive: -0.627
CUCGCUUCAUAGCAACUUUTT against PSMA8 | inactive: 0.407
GACCGACUGCAGAACAAUATT against PDE6B | inactive: -0.336
CGAAUCAUUUGGGAAUUGATT against IDH1 | inactive: 0.421
GGUUCACGCUAUAUAAUCATT against CNTN1 | inactive: -0.796
GUCUCAUGUUUAUACACCATT against HEXB | inactive: 0.0101
CACUCGCAGUUAAUAUCAUTT against AZIN1 | active: -1.14
CCAGGGACCAAGAGAAAGATT against RCE1 | active: -1.19
CUGUUUGGUUUAUUCGAUUTT against ZW10 | inactive: 0.199
GCAUACUGCCUAUUGGUCATT against DDHD1 | inactive: 0
CCUCUAUAAUACAAACGAUTT against CACNA1B | inactive: 0.0963
GGCUUUGAGUUGUCAAGCATT against PIK3C2A | inactive: 0.0177
GGAUAGUCUGACUAGUUUATT against BTF3 | inactive: 0.0468
GCAUCAACCACGAGUGUAATT against ZNF423 | inactive: 0.0134
CCAGUUCAAUAGUCAUGGATT against TAF7L | inactive: -0.14
GGAUGCACUUUGUCCGAAATT against SPATA5 | active: -1.04
CAUUCCCUGUUGUAAUCAATT against MDH1 | inactive: -0.154
CUGCUGAUCUGGGCCUGAATT against HINT1 | inactive: 0.873
GACUCAAGUUAAACGAGAUTT against MFSD1 | inactive: -0.0833

Sequence | median seed-adjusted z-score
GAUCUGCACCGUCCAGUUGTT against TNFRSF25 | inactive: -0.534
GGCCUAUCAGCUUCUAUCATT against GPR172A | inactive: 0.382
CGACCGCAAUAAGUAUGGATT against IHH | inactive: 0.0642
GGUUCGGGAUGACUCUUCATT against VAV1 | inactive: 0.215
CUACAAAUCCCUUACCAAUTT against TRDMT1 | inactive: 0
CGGUGCUCCCUGUCAUAAATT against CCR2 | inactive: -0.00107
CGUACGCAGAGAUGCCUAATT against ITPA | inactive: 0.616
CCAACGAGCGAGCAGCUUATT against BARX1 | active: 1.63
GGACCAUUUCUAUCAUCUUTT against GNAL | inactive: -0.178
GGAUGCACCUGAAAACAGATT against AHRR | inactive: -0.636
GAACUAUGUGGUGCGCUUATT against GPD1L | inactive: 0.11
CAGUGAUCCUGAACGAGGATT against DLG2 | inactive: 0.133
GGAGGACCAUUAUUAUGAATT against TKT | inactive: 0.0314
CCAGGGUAAAGUCAGUUAATT against SMAP2 | inactive: -0.0114
GCAGCUACCUCAUGACUAUTT against EIF4EBP2 | inactive: 0.517
GAAACCCGAUGGAUCUAGATT against AASDHPPT | inactive: 0.64
GGGUCAAGUCUGAACUGCUTT against KATNAL1 | inactive: -0.0327
UGACAUUACUGAUGACAUATT against LALBA | inactive: -0.148
GGAUUGUAAACAAGGUCAATT against TNFRSF9 | inactive: 0.859
CACCUUCAUUUUACUCGAATT against TAF5 | inactive: -0.192
